# These are yes or no findings as the source states them, for the method shown. In cells and extracts the contact can be indirect. A yes stands for co-enrichment or nearness to the bait. Other partners may have been found.
# The chains behind the UniProt entries cited, without tags or fusion partners.
# UniProt Q8BK63: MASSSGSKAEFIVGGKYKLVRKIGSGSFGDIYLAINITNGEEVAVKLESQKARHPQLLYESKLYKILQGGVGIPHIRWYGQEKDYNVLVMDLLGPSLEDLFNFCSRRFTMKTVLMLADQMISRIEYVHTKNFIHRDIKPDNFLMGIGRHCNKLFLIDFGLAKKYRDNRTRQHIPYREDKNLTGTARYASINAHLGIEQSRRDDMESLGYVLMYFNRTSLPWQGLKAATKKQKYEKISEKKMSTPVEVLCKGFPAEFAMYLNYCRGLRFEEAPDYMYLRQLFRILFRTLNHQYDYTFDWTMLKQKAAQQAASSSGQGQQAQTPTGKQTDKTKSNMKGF
# Molecular target: casein kinase 1 alpha (CK1α), mouse (mouse (endogenous in ileum of C57BL/6 mice)) (UniProt Q8BK63)
# Assay: affinity purification with mass spectrometry
binder,measurement,value
"Family with Sequence Similarity 83 Member H (FAM83H), wild type, mouse (protein, UniProt Q148V8 1-1209) MARRSQSSSQGDNPLAPGYLPPHYKEYYRLAVDALTEGGPEAYNRFLASEGAPDFLCPEELEHVSRHLQPPQYVAREPPEGTPSDVDMDGSSGTYWPVNSDQAVPELDLGWPLTFGFQGTEVTTLVQPPPPDSPSIKDEARRMIRSAQQVVAVVMDMFTDVDLLSEVLEAAARRVPVYILLDEMNAQHFLDMADKCRVNLHHVDFLRVRTVAGPTYYCRTGKSFKGHLKEKFLLVDCAVVMSGSYSFMWSFEKIHRSLAHVFQGELVSSFDEEFRILFAQSEPLVPSAGALARMDAYALAPYSGAGPLVGVPGVGAPTPFSFPKRAHLLFPPPREEGLGFPSFLDPDRHFLSAFRREELQRMPGGALEPHTGLRPLARPTEAGPFGELAGPRGFFQSRHLEMDAFKRHSYATPDGAGAVENFAAARQVSRQTFLSHGDDFRFQTSHFQRDQLYQQHYQWDPQFAPARPQGLFEKLRAGRPGFADPDDFALGAGHRFPELGADVHQRLEYVPSSASREVRHGSDPAFGPSPRGLEPSGASRPNLGQRFPCQATLRQGLDTASEAEPERRGGPEGRAGLRHWRLASYLSGCHGDGGEEGLPMEAEACEDEVLAPGGRDLLPSAFRTPAAFPAKGPKPGSGSGGGDSSEREGPEETSLAKQDSFRSRLNPLIQRSSRLRSSLIFASQAEGAVGTAAATTEKVQLMHKEQTVSETLGPSGEAVRSSASAKVAELLEKYKGPARDPGGAGGAVTSSSHSKAVVSQAWREEVVAPGGAGTERRSLESCLLDLRDSFAQQLHQEAERHPGAASLTAAQLLDTLGGTDRLPSRFLSAQGRSLSPQGRDSPPPEGLGTHQLPYSEPKGNPTPAYPERKGSPTPAYPERKGSPTPAYPERKGSPTPAYPERKGSPTQAYPERKGSPTSGFPNRRGSPTTGLMEQKGSPTSTYPDRRGSPVPPVPERRGSPVPPVPERRGSLTFAGESSKTGPTEEVSSGPMEVLRKGSLRLRQLLSPKNERRGEDEGSFPTPQENGQPESPRRPSLSRGDSTEAAAEERGSRVRLASATANALYSSNLRDDTKAILEQISAHGQKHRGVPAPGPAHSSPDVGRPTTAGDLAPDMSDKDKCSAIFRSDSLGTQGRLSRTLPGSAEERDRLLRRMESMRKEKRVYSRFEVFCKKDEAGSSGAGDNLADEDTRDSKMGKFVPKILGTFKSKK",binding,binds

# From publication doi:10.1101/2025.05.26.656197
